# Values of other authors, collected in patent publication US20220241422A1, “DRUG DELIVERY COMPOSITION AND PHARMACEUTICAL COMPOSITION” (Nihon University, priority 2019, published 2022).
# At least one read-out could not be matched to a standard name with certainty.
# Conditions: cited from earlier work
smiles,measurement,value
"CC(=O)N[C@@H](CS)C(=O)O [NAC, N-Acetyl-Cysteine]",blood-brain barrier (BBB) permeability,low
